# Source: PubChem BioAssay AID1487 (National Center for Advancing Translational Sciences (NCATS), 2009)
# Some of the results follow. Further columns of the screen follow, without active or inactive calls. The list favours compounds with an active or inconclusive main result. Potencies come from curve fits of mixed quality, noted in brackets.
# Assay: qHTS Assay for Modulators of Lamin A Splicing
# Conditions: HeLa LMNA splicing GFP/RFP minigene ratio, 48 h
# How it was run: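 S3 HeLa cells stably expressing lamin A-EGFP splicing minigene plus DsRed2, 600 cells/well, 48 h compound exposure at 37C. Laser-scanning cytometry; analysed as GFP (500-530 nm)/RFP (575-640 nm) total intensity ratio; 0.5% DMSO vehicle.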
# [1] = measured here: RFP viability control channel
# [2] = measured here: GFP splicing reporter channel
SMILES,AC50 [1],AC50 [2]
C/C(=N\NC(=O)CSc1nc2ccccc2s1)c1ccco1,"10 µM [rising, partial curve, poor fit]",–
CN1C(=O)c2ccccc2Sc2ccc(NC(=O)Cc3c(F)cccc3Cl)cc21,"7.08 µM [falling, partial curve]","3.16 µM [falling, full curve, poor fit]"
CCC(=O)N/N=C(\C)CC(=O)Nc1ccc2c(c1)OCCO2,–,"7.94 µM [falling, partial curve, poor fit]"
OCCN=C1CCCc2c1[nH]c1ccc(Br)cc21,"28.2 µM [falling, single point]","15.8 µM [falling, single point]"
O=C(NCc1nnc2c3ccccc3c(-c3ccccc3)nn12)c1ccc(Cl)cc1,"22.4 µM [rising, partial curve]","14.1 µM [rising, partial curve, poor fit]"
O=C(NC1CCCCC1)C1c2ccccc2C(=O)N1Cc1ccc2c(c1)OCO2 (configuration not stated),–,"7.08 µM [rising, partial curve, poor fit]"
O=[N+]([O-])c1ccc2c(c1)C(N1CCOCC1)/C(=C/COc1ccc(F)cc1)O2 (configuration not stated),"14.1 µM [rising, partial curve, poor fit]",–
CN(CC/C=C1/c2ccccc2CSc2ccccc21)CCCO,"11.2 µM [rising, single point]","10 µM [rising, partial curve, poor fit]"
Cc1ccccc1NC(=O)N1CCCC(c2nc(-c3ccc(F)cc3)no2)C1 (configuration not stated),"14.1 µM [rising, single point]",–
Cc1ccc(Nc2nc(N)c([N+](=O)[O-])c(N3CCOCC3)n2)cc1C,"35.5 µM [rising, single point]","35.5 µM [rising, single point]"
Cc1cccc(-c2nc(SCC(=O)NCC3CCCO3)c3c(=O)n(C)c(=O)n(C)c3n2)c1 (configuration not stated),–,"0.316 µM [rising, partial curve, poor fit]"
COc1ccccc1[C@@H]1C(c2cccc(C)c2)=NN(c2ccccc2)[C@H]1C(=O)N1CCOC1=O,"10 µM [falling, partial curve, poor fit]","11.2 µM [falling, partial curve, poor fit]"
COC(=O)c1ccc(N2C(=O)Nc3ccccc3N2O)cc1,"35.5 µM [falling, single point]","1.26 µM [falling, partial curve]"
COc1ccc(NS(=O)(=O)c2ccc(Oc3ncccn3)cc2)cc1,"11.2 µM [rising, partial curve]",–
CCOc1cc(/C=C/C(=O)OCC(=O)NC2CCS(=O)(=O)C2)ccc1OCc1ccccc1 (configuration not stated),"2.51 µM [falling, partial curve]",–
NC(=O)CS(=O)(=O)c1nc2ccccc2n1Cc1ccccc1F,"25.1 µM [rising, single point]",–
CC1CCCN(C(=O)c2cccc(S(=O)(=O)Nc3cc(C(F)(F)F)ccc3Cl)c2)C1 (configuration not stated),"35.5 µM [rising, single point]","35.5 µM [rising, single point]"
Cc1ccc(NC(=O)C2CCCN(S(=O)(=O)c3cccc4cccnc34)C2)c(Br)c1 (configuration not stated),–,"3.16 µM [rising, single point]"

# Reprinted at random: 2 records from the list.
SMILES,AC50 [1],AC50 [2]
C/C(=N\NC(=O)CSc1nc2ccccc2s1)c1ccco1,"10 µM [rising, partial curve, poor fit]",–
CC1CCCN(C(=O)c2cccc(S(=O)(=O)Nc3cc(C(F)(F)F)ccc3Cl)c2)C1 (configuration not stated),"35.5 µM [rising, single point]","35.5 µM [rising, single point]"

# (continued)

SMILES,AC50 [1],AC50 [2]
Cc1nnc(SCc2c(Cl)cccc2[N+](=O)[O-])s1,"11.2 µM [rising, partial curve, poor fit]",–
C/C=C/C=N/Nc1nc(-c2ccc([N+](=O)[O-])cc2)cs1,"31.6 µM [rising, single point]",–
Cc1ccccc1NC(=O)CCC(=O)N/N=C/c1cc([N+](=O)[O-])ccc1O,"31.6 µM [rising, single point]","31.6 µM [rising, single point]"
CCOC(=O)N1CCN(CC(=O)Nc2ccc(C)c(Br)c2)CC1,"35.5 µM [rising, single point]",–
Cn1c(=O)c2c(nc(N3CCOCC3)n2CC(=O)c2ccccc2)n(C)c1=O,"0.01 µM [falling, full curve, poor fit]",–
O=C1C2C3C=CC(C3)C2C(=O)N1c1ccccc1 (configuration not stated),–,"0.501 µM [rising, full curve, poor fit]"
Cc1nc2c(Br)cc(Br)cc2cc1O,"22.4 µM [rising, single point]",–
Cc1ccc(-c2csc(NC(=O)c3ccc(-c4ccccc4)cc3)n2)o1,"6.31 µM [rising, full curve]","7.94 µM [rising, partial curve, poor fit]"
CCCNC(=O)C1CCN(c2ccc(S(=O)(=O)N3CCOCC3)cc2Cl)CC1,"17.8 µM [rising, single point]",–
Cc1ccc(-n2nnnc2CNC(=O)c2ccc(F)cc2)cc1C,–,"0.0282 µM [rising, full curve, poor fit]"
COc1ccccc1-c1nn2c(=O)cc(CN3CCN(S(=O)(=O)c4ccc(C)cc4)CC3)nc2s1,–,"1.78 µM [rising, partial curve, poor fit]"
CCOC(=O)Cc1csc(NC(=O)CSc2ncnc3c2cnn3-c2ccc(OC)cc2)n1,"20 µM [rising, partial curve]","14.1 µM [rising, partial curve]"
O=C(Nc1ccc(Cl)c(Cl)c1)Oc1ccc(NC(=O)c2ccco2)cc1,"31.6 µM [rising, single point]",–
Cc1cc(=O)n(-c2ccccc2)n1C,–,"0.316 µM [falling, full curve, poor fit]"
C=CCn1c(O)c(N=NC(=S)Nc2ccccc2C)c2cc(S(=O)(=O)N3CCOCC3)ccc21,"10 µM [rising, partial curve]","10 µM [rising, partial curve, poor fit]"
CCc1ccc(NC(=O)C(=O)NCCN2CCN(Cc3ccc([N+](=O)[O-])cc3)CC2)cc1,"31.6 µM [rising, single point]",–
CCC(CC)C(=O)Nc1ccc(Sc2ccc([N+](=O)[O-])cc2)cc1,"0.398 µM [rising, single point]",–
